Experimental data as given in PubChem BioAssay AID504648 (National Center for Advancing Translational Sciences (NCATS), 2011).
Among all 390,000 compounds or so, about 610 (0.16%) were called active. Inconclusive results, whose numbers are uncertain, are shown with a selection of clear calls. The call rests on the fitted dose curve; in most records, active means well fitted inhibition curve with a large enough effect; inconclusive means small, poorly fitted or top-dose-only effect, or effect the other way, or another doubt; inactive means no such curve, though single readings can be large or run the other way. Potencies beside an inconclusive call are fits to weak or partial responses and may not hold up.
On the % scale 0 is the no-effect control and ±100 the full control effect; potency means the concentration at half of the fitted maximal effect.

Assay: Nrf2 qHTS screen for inhibitors: counterscreen for cytotoxicity
Settings: A549 ARE-Fluc cells, CellTiter-Fluor viability, 18-24 h; activity change, negative = cytotoxicity: at 46 µM (top of the series)
How it was run: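 Cytotoxicity counterscreen: CellTiter-Fluor fluorescence was measured in A549 ARE_Fluc cells after 18-24 h of compound exposure in a concentration series. The subsequent BugLite luminescent read reports ARE-luciferase activity.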
For CC[n+]1c(/C=C/c2c[nH]c3ccccc23)ccc2cc(C)ccc21, the Potency was inconclusive: 16.4 µM [falling, single point].
With CC(=O)c1ccc(NC(=O)Nc2ccc3c(c2)N(C)C(=O)CS3)cc1 the “activity change, negative = cytotoxicity” value was inactive: -5.88%.
With CCOC(=O)N=Nc1c2ccccc2c2nc3no[nH]c3nc12 the Potency was active: 0.92 µM.
With Nc1ccc2cc3[nH]c4cc(N)ccc4c3nc2c1 the Potency was inconclusive: 14.6 µM [activator, partial curve].
With COc1ccccc1C1CN(c2ccccc2)N=C1c1cccs1 (stereo unspecified) the Potency was inconclusive: 20.6 µM [activator, partial curve].
In the case of Cc1cc(Cl)ccc1OCC(=O)N(Cc1ccc(N(C)C)cc1)CC1CCCO1 (stereo unspecified), the Potency is reported as inconclusive: 32.6 µM [falling, partial curve, poor fit].
For COc1ccc2c(c1OC)C(=O)N(c1cccc(NC(C)=O)c1)C2, the “activity change, negative = cytotoxicity” value was inactive: 3.93%.
With CCCCCN1C(C(=O)c2ccccc2)=C(NC(C)=O)c2ccccc2S1(=O)=O the Potency was inconclusive: 23.1 µM [falling, partial curve, poor fit].
In the case of CCCCCCCCCc1nc2sc3c(c2c(=O)n1NC(=O)c1ccccc1[N+](=O)[O-])CC(C)(C)OC3, the Potency is reported as inconclusive: 16.4 µM [falling, single point].
With O=C1COc2cc(S(=O)(=O)CCC(=O)N3CCN(c4ccccc4)CC3)c(Cl)cc2N1 the “activity change, negative = cytotoxicity” value was inactive: 3.53%.
In the case of Cc1ccccc1N(CC(=O)NC1CCCCC1)C(=O)CCCC(=O)Nc1ccccn1, the “activity change, negative = cytotoxicity” value is reported as inactive: -7.05%.
In the case of O=C(OCc1nc2scc(-c3ccccc3)c2c(=O)[nH]1)c1cc(Cl)ccc1[N+](=O)[O-], the “activity change, negative = cytotoxicity” value is reported as inactive: -0.776%.
With O=C(CSc1nnc(-c2ccncc2)n1-c1ccc(F)cc1)NC(=O)NCc1ccco1 the Potency was inconclusive: 11.6 µM [activator, partial curve, poor fit].
With Cc1ccc(C(=O)Nc2sc3c(c2C(=O)NCc2ccco2)CCCC3)cc1 the Potency was inconclusive: 25.9 µM [falling, partial curve, poor fit].
With Cc1cccc2c(N)c3c(nc12)CCCC3 (tested in a mixture with another compound) the Potency was inconclusive: 29.1 µM [falling, partial curve, poor fit].
With O=C(CCS(=O)(=O)c1ccccc1)Nc1nncs1 the Potency was inconclusive: 5.17 µM [falling, partial curve, poor fit].
For COc1ccc(C(=O)O/N=C(\N)c2ccccc2Cl)cc1OC, the Potency was inconclusive: 20.6 µM [falling, partial curve, poor fit].
With Cc1ccc(NC(=O)C(=O)NCC(c2cccnc2)N2CCc3ccccc3C2)cc1 (stereo unspecified) the “activity change, negative = cytotoxicity” value was inactive: -1.27%.
With C=Cc1ccc(Cn2c(C(=O)O)c(CNCc3ccccc3)c3ccc(OC)cc32)cc1 the Potency was inconclusive: 18.4 µM [falling, single point].
For C/C(=N\Nc1ccc([N+](=O)[O-])cc1)c1ccc(O)cc1, the Potency was inconclusive: 25.9 µM [falling, single point].
With COc1cc(OC)cc(C(=O)Nc2ccc(NC(=O)c3ccco3)c(Cl)c2)c1 the Potency was inconclusive: 29.1 µM [falling, single point].
In the case of CC1=CC(=O)c2ccccc2C1=O, the Potency is reported as “inactive”.
In the case of Cc1ccc(C(=O)Nc2nc3c(s2)CCCC3)o1, the “activity change, negative = cytotoxicity” value is reported as inactive: -9.51%.
With COc1cc(Br)ccc1C1C(C(=O)Nc2ccc(C)cc2C)=C(C)Nc2nnnn21 (stereo unspecified) the “activity change, negative = cytotoxicity” value was inactive: -7.56%.
In the case of O=C(N/N=C/c1c[nH]c2ccccc12)c1[nH]c2ccc(Br)cc2c1-c1ccccc1, the Potency is reported as inconclusive: 5.8 µM [falling, partial curve, poor fit].
With CCN(CC)Cc1c(O)ccc2c1O/C(=C\C=C\c1ccccc1)C2=O the Potency was inconclusive: 16.4 µM [falling, partial curve].
For CC(C)(C)CC(C)(C)NCC(O)COc1ccc2c(c1)CCC2 (stereo unspecified), the Potency was inconclusive: 29.1 µM [falling, single point].
In the case of Cc1cc(C)c2c3c(sc2n1)C(c1cccc(F)c1)C(C#N)=C(N)O3 (stereo unspecified), the Potency is reported as inconclusive: 29.1 µM [falling, single point].
For Cc1c(C(=O)Nc2ccc(Cl)cc2)c2ccccn2c1CCc1ccncc1, the Potency was inconclusive: 20.6 µM [falling, partial curve, poor fit].
In the case of CCS(=O)(=O)c1ccc(OC)c(N=Nc2ccc(O)c3ncccc23)c1, the Potency is reported as inconclusive: 16.4 µM [falling, single point].
With O=C(c1ccc2c(c1)CCN2S(=O)(=O)c1ccc(Cl)cc1)N1CCN(c2ccccc2)CC1 the “activity change, negative = cytotoxicity” value was inactive: -5.6%.
For Cc1cc2oc(=O)cc(-c3ccccc3)c2c(C)c1-c1ccc(C(F)(F)F)cc1, the Potency was inconclusive: 6.51 µM [activator, partial curve, poor fit].
With O=C(O)CNc1ccc(S(=O)(=O)C(F)(F)F)cc1[N+](=O)[O-] the Potency was inconclusive: 18.4 µM [falling, partial curve, poor fit].
For CC(C)CCCCCCCCCCCCC(=O)NCC(=O)NC1C(C)OC(Nc2ncnc3nc[nH]c23)C(O)C1O (stereo unspecified), the Potency was inconclusive: 0.0366 µM [falling, full curve].
With O=C(CNc1cccc2ccccc12)c1ccc([N+](=O)[O-])cc1 the “activity change, negative = cytotoxicity” value was inactive: -0.851%.
In the case of CN1CCN(c2ccc(S(=O)(=O)N3CCCCC3)cc2NC(=O)c2ccc3ccccc3c2)CC1, the “activity change, negative = cytotoxicity” value is reported as inactive: -3.04%.
With NC1=C(Cl)C(=O)c2ccccc2C1=O the Potency was inconclusive: 29.1 µM [falling, single point].
In the case of COc1ccc(/C=C/C(=O)N(CC(C)C)CC(C)C)cc1Br, the Potency is reported as inconclusive: 23.1 µM [falling, single point].
With O=C1CCCN1c1cc(Cl)cc(Cl)c1 the Potency was inconclusive: 23.1 µM [activator, partial curve, poor fit].
For O=C(Nc1ccc2nc3ccccc3nc2c1)c1ccccc1, the Potency was inconclusive: 32.6 µM [falling, partial curve, poor fit].
In the case of O=S(=O)(O)c1cccc2c(N=Nc3ccc(O)c4ncccc34)cccc12, the Potency is reported as active: 11.6 µM.
In the case of CCOCCc1nn2c(=O)cc(COC(=O)CNC(=O)c3ccc(F)cc3)nc2s1, the “activity change, negative = cytotoxicity” value is reported as inactive: -1.86%.
In the case of COc1cc(/C=C2\SC(=S)N(C(C(=O)O)c3ccccc3)C2=O)ccc1O (stereo unspecified), the Potency is reported as inconclusive: 20.6 µM [falling, single point].
For O=C1ON=C(c2ccccc2)/C1=C/c1ccc(-c2ccccc2[N+](=O)[O-])o1, the Potency was inconclusive: 23.1 µM [falling, single point].
With CC(=O)c1cccc(S(=O)(=O)N2CCCC(c3nc4c(nnn4Cc4ccccc4Cl)c(=O)[nH]3)C2)c1 (stereo unspecified) the Potency was inconclusive: 29.1 µM [falling, single point].
With COc1cccc(CN2C(=O)[C@H]3Cc4c([nH]c5ccccc45)C(C)(C)N3C2=O)c1 the Potency was inconclusive: 29.1 µM [falling, partial curve, poor fit].
With CCOC(=O)C(=CNc1ccc2c(c1)nnn2-c1ccc(Cl)cc1)C(=O)OCC the Potency was inconclusive: 29.1 µM [falling, single point].
For Cc1ccc(CSc2nnc(-n3c(=O)c(C#N)cc4c(=O)n5cc(C)ccc5nc43)s2)cc1, the “activity change, negative = cytotoxicity” value was inactive: 0.0049%.
For COc1ccc(Cn2ccc3nc(C)c(C(=O)N4CCN(c5ccccc5OC)CC4)cc3c2=O)cc1, the “activity change, negative = cytotoxicity” value was inactive: 4.53%.
In the case of CC(C)[C@H](NC(=O)[C@H](CCCN=C(N)N)NC(=O)NC(Cc1ccccc1)C(=O)O)C(=O)NC(C=O)CCCN=C(N)N (stereo partly specified), the Potency is reported as inconclusive: 20.6 µM [falling, partial curve].
In the case of O=C(O)c1cccc(Nc2cc(Cl)c3nonc3c2[N+](=O)[O-])c1, the Potency is reported as inconclusive: 20.6 µM [falling, partial curve].
With COc1cccc(CNc2ccc([N+](=O)[O-])c(NCC(=O)O)n2)c1 the Potency was inconclusive: 20.6 µM [falling, single point].
In the case of Cc1noc(C)c1COc1ccccc1C(=O)N1CCN(c2cccc(C(F)(F)F)c2)CC1, the Potency is reported as inconclusive: 13 µM [falling, partial curve, poor fit].
With CCCn1c(=O)c2sccc2n2c(CCCC(=O)Nc3ccc(Oc4ccccc4)cc3)nnc12 the Potency was inconclusive: 18.4 µM [falling, partial curve, poor fit].
With Cc1ccc(OCCCCN(C)Cc2ccccc2)c(Br)c1 the Potency was inconclusive: 29.1 µM [falling, single point].
In the case of Cc1csc2ncnc(N3CCN(C(=S)Nc4ccc(C(F)(F)F)cc4)CC3)c12, the “activity change, negative = cytotoxicity” value is reported as inactive: -5.73%.
With N#C/C(=N/Nc1ccc([N+](=O)[O-])cc1)C(=N)N1CCCCC1 the Potency was inconclusive: 16.4 µM [falling, partial curve].
With CCOc1ccc(OCC)c(-c2c(=O)n(OCc3ccc(Cl)cc3)c3ccccc3[n+]2[O-])c1 the Potency was inconclusive: 25.9 µM [falling, single point].
In the case of CCn1cc([N+](=O)[O-])c(C(=O)N2N=C(c3ccc4ccccc4c3)CC2c2ccccc2O)n1 (stereo unspecified), the Potency is reported as inconclusive: 25.9 µM [falling, single point].
For Cc1cccc(NC(=O)c2sc3nc(-c4cc5ccc(O)cc5oc4=O)[nH]c(=O)c3c2C)c1, the “activity change, negative = cytotoxicity” value was inactive: 3.74%.
In the case of Cc1ccc(Nc2ccc(C(=O)O)cc2N)cc1, the “activity change, negative = cytotoxicity” value is reported as inactive: -8.97%.
In the case of CC(=O)Oc1c(C)cc(Cl)cc1C(=O)Nc1ccc([N+](=O)[O-])cc1Cl, the Potency is reported as active: 2.59 µM.
In the case of O=C(COc1ccc(F)cc1)NCc1ccc2c(c1)CCN2C(=O)c1ccccc1, the “activity change, negative = cytotoxicity” value is reported as inactive: -8.57%.
With Cc1c(C(=O)O/N=C(\N)c2ccccn2)cccc1[N+](=O)[O-] the Potency was inconclusive: 20.6 µM [falling, single point].
For Cc1ccc(OCC(O)CN2CCc3ccccc3C2)c(C)c1 (stereo unspecified), the Potency was inconclusive: 1.64 µM [activator, partial curve, poor fit].
For COc1ccc(CNC(=O)C2CCCN(c3nnc(C)c4c(C)n(-c5ccc(C)cc5)nc34)C2)cc1 (stereo unspecified), the “activity change, negative = cytotoxicity” value was inactive: -16%.
